PubChem BioAssay AID504467 (National Center for Advancing Translational Sciences (NCATS), 2011)
The campaign covered roughly 330,000 compounds. About 7,700 (2.3%) were called active. This list was built around the results that the source calls inconclusive (neither active nor inactive); the mix of calls is not that of the screen. Calls follow the shape of the dose curve; as a rule, active = well fitted inhibition curve with a large enough effect; inconclusive = small, poorly fitted or top-dose-only effect, or effect the other way; inactive = flat fitted curve, though single readings scatter. Where the call is inconclusive, the potency comes from a doubtful curve fit.

Assay: qHTS screen for small molecules that inhibit ELG1-dependent DNA repair in human embryonic kidney (HEK293T) cells expressing luciferase-tagged ELG1; also: nearly all actives have a fitted effect of over 55% in size
Conditions: HEK293T ELG1-luciferase reporter, luminescence, 16 h, DNA damage induced by 5-fluorouridine; series mostly up to 46.1 µM
Method in brief: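 In this reporter screen, reduction of luminescence relative to DMSO vehicle indicated activity. Compounds and 5-fluorouridine were added together to 2,000 cells per well, incubated for 16 hr at 37 °C, then developed with ONE-Glo.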
Potency is read from the fitted curve at half-maximal effect.

SMILES	Potency
COc1cccc(-c2ccc(C#N)c(OC(=O)c3c(Cl)cccc3Cl)n2)c1	inconclusive: 14.6 µM [inhibitor, partial curve, poor fit]
Cn1nc(-c2ccccc2)cc1NC(=O)C1CCCCC1	inconclusive: 16.4 µM [activator, partial curve]
COc1ccc(C(=O)N2CCN(c3ccccc3Cl)CC2)cc1S(=O)(=O)NC1CC1	inactive
CC(=O)Nc1sc2c(c1C(N)=O)CCN(Cc1ccccc1)C2	inactive
O=C(N/N=C/c1c[nH]c2ccccc12)c1ccccc1Cl	inconclusive: 14.6 µM [activator, partial curve, poor fit]
COc1ccc(-c2nc3ccccc3s2)cc1NC(C)=O	inconclusive: 5.17 µM [activator, partial curve]
Cn1c(SCC(=O)NCC2CCCO2)nc2c(c1=O)SCC2 (stereo not drawn)	inactive
Cc1nn(Cc2ccc(F)cc2)c2sc(C(=O)Nc3ccccc3N3CCOCC3)cc12	inconclusive: 29.1 µM [inhibitor, single point]
COc1ccc(/C=N/OC(=O)Nc2ccccc2)cc1[N+](=O)[O-]	inconclusive: 20.6 µM [activator, single point]
COC(=O)c1ccc(/C=N/NC(=O)c2ccc3nc[nH]c3c2)cc1	inconclusive: 14.6 µM [activator, partial curve, poor fit]
Cn1ncc(C#N)c1/N=C/N(Cc1ccccc1)Cc1ccccc1	inconclusive: 7.31 µM [inhibitor, partial curve]
CCCN(CC1CC1)c1nc(N)c(C#N)c(CC#N)c1C#N	inconclusive: 29.1 µM [inhibitor, single point]
COC(=O)C(C)n1cnc2c(nnn2-c2ccc(F)cc2)c1=O (stereo not drawn)	inconclusive: 16.4 µM [activator, partial curve, poor fit]
CCOc1ccccc1N1CCN(C(=O)c2ccc3[nH]c4c(c3c2)CCCC4)CC1	inactive
CC1CC(C)CN(C(=O)C2CCCN(S(=O)(=O)c3cnc[nH]3)C2)C1 (stereo not drawn)	inactive
O=S(=O)(c1cccc(-c2n[nH]c(=S)n2-c2ccccc2Cl)c1)N1CCOCC1	inconclusive: 18.3 µM [activator, single point]
CCOC(=O)c1c(CN(CC)CC)n(C)c2cc(Br)c(O)cc12	inconclusive: 16.4 µM [inhibitor, single point]
CCOc1cc(N2CCOCC2)c(OCC)cc1NC(=O)CN1CCCC(C)C1 (stereo not drawn)	inconclusive: 23.1 µM [inhibitor, partial curve]
O=C(CSc1nnc(-c2ccccc2)c(-c2ccccc2)n1)NCc1ccco1	active: 23.1 µM
O=C(CNc1cccc2ccccc12)N/N=C/c1ccccn1	inconclusive: 16.4 µM [inhibitor, partial curve, poor fit]
CSc1ccc(/C=C/C(=O)Nc2ccccc2)cc1	inconclusive: 0.73 µM [activator, full curve]
c1ccc(Oc2cccc(OCCCCN3CCCC3)c2)cc1	inactive

Taken from the entries so far, 2 compounds:
SMILES	Potency
CC(=O)Nc1sc2c(c1C(N)=O)CCN(Cc1ccccc1)C2	inactive
O=C(N/N=C/c1c[nH]c2ccccc12)c1ccccc1Cl	inconclusive: 14.6 µM [activator, partial curve, poor fit]

Remaining list, next part:

SMILES	Potency
Cc1ccc(C)c(OC(=O)c2cccnc2)c1	inactive
CCOC(=O)c1ccc(N/C=C/C(=O)c2ccc(OC)cc2)cc1	inconclusive: 32.6 µM [activator, partial curve, poor fit]
COc1ccc(/C=C/C(=O)OCC(=O)Nc2ccc(Cl)c(S(=O)(=O)N(C)C)c2)cc1OC	inconclusive: 32.6 µM [inhibitor, single point]
CC1=NN(c2ccccc2)C(=O)/C1=C\c1ccc(Oc2ccc([N+](=O)[O-])cc2[N+](=O)[O-])cc1	inconclusive: 29.1 µM [activator, partial curve, poor fit]
O=C(OCc1nc2ccccc2s1)c1ccc(Br)o1	inconclusive: 18.3 µM [activator, partial curve]
c1ccc(-c2nc(-c3ccccn3)no2)cc1	inconclusive: 0.291 µM [activator, partial curve]
COc1ccccc1N1CCN(C(=O)c2cc(S(=O)(=O)N3CCCCC3)ccc2C)CC1	inconclusive: 18.3 µM [inhibitor, single point]
COC(=O)c1ccccc1OCCOc1ccccc1C(=O)OC	inactive
CS(=O)(=O)Nc1cc2c3c(c1)CCC(=O)N3CCC2	inconclusive: 23.1 µM [activator, single point]
C=CCn1c(SCC(=O)/C(C#N)=C(\C)N)nc2sc(CC)cc2c1=O	inconclusive: 23.1 µM [inhibitor, single point]
Cc1cccc(Cc2nnc(CCC(=O)N(C)CCc3ccccc3)o2)c1	inconclusive: 2.91 µM [activator, full curve]
Cc1ccc(OC(=O)c2cc3ccccc3o2)cc1	inconclusive: 23.1 µM [activator, partial curve, poor fit]
COc1ccc(Nc2nc(-c3ccccc3F)nc3ccccc23)cc1OC	active: 23.1 µM
CCCCOc1ccc(CSC2=NCCN2)cc1[N+](=O)[O-]	inactive
COc1ccc2c(c1)CCc1c(C(=O)NCc3ccco3)noc1-2	inconclusive: 4.61 µM [activator, full curve]
O=C1CSC(=S)N1N1C(=O)c2cccc([N+](=O)[O-])c2C1=O	inconclusive: 3.66 µM [inhibitor, partial curve, poor fit]
Cc1cc(SCC(=O)c2ccccc2)nc(=O)[nH]1	inconclusive: 16.4 µM [activator, partial curve]
COc1ccc(C(=O)NC(=S)NCc2ccccc2)cc1	inconclusive: 29.1 µM [activator, single point]
O=C(N/N=C/c1ccccc1)c1ccc(CN2C(=O)c3cccc4cccc2c34)cc1	inconclusive: 20.6 µM [inhibitor, single point]
CCC(=O)n1nc(-c2ccc(Cl)cc2)nc1NCc1ccccc1	inconclusive: 13 µM [activator, partial curve]
Clc1ccc(-n2nnnc2-c2cnc(-c3ccncc3)nc2-c2cccs2)cc1	inconclusive: 23.1 µM [inhibitor, single point]
